This assay addresses BirA*-ASPH (myc-BirA* fused to the N-terminus of junctin). The assay can be described thus: proximity labelling; BioID in living mouse hearts: AAV9-Tnnt2 BirA*-ASPH or BirA*-TRDN given at P1, biotin from P21 to P28, hearts collected at P28; 0.5 mg protein extract on streptavidin Dynabeads, washed with RIPA buffer, on-bead digestion, LC-MS/MS; control AAV-GFP; one replicate pooled from three hearts for each sensor.

Results are given in words; binding and its absence hold for the method and conditions named. In cells and extracts the contact can be indirect. Here binding means that the protein was enriched with, or labelled near, the bait; the list need not be complete.

B1: TRDN (triadin), recovered as a BioID hit (protein, UniProt E9Q9K5 1-693)
chain: MTEITAEGNASTTTTVIDNKNGCIPKSPGKVLKRSVTEDIVTTFSSPAAWLLVIALIITWSAVAIVMFDLVDYKNFSASSIAKIGSDPLKLVNDAVEETTDWIYGFFSLLSDIISSEGDEDDEDADEDIDKGEIEEPPLKRKEIHQEKAEKEEKPEKKIQTKASHREREKGKEKLKGEKPEKTATHKEKLEKKERPETKMMAKEDKKIKTKEKTEEKAKKEMKVGKQEKVKPTAAKAKETPKTPPKARKKDDKEMPAVHEQKDQYAFCRYMIDMFVHGDLKPGQSPVMPPPSLTPSKPALSTTALEEKEKEEKKKMEKKDTSDTKKKEKEVKKKSEETTIDGKGKEPGKPPETKQMTAKLTTQAAARKDEKKEESKKMRKPTEEQPKGKKQEKKEKHIEPAKTPKKEHPGPSEKLKKAKAEQAKEEIAAASTKKALHGKKEEKAKTVEQEVKKEKSGKSSSDLKDKEVKKEKSGKSSSDLKDKEPQLKNEEKSKPQVKKEAKLASSDKGQTRKQNITRPEQVIPHVKPEKAEHQEKGHPSIKKDKPKPSSKGAPEVPDSGKKKIEKSEKESKVPTREENLQVYNVTKAEKPGKIPKDSKEAPASKKDKEDSKEAPTSKKDKEDSKDVPHSKKDKEVTDDVSSPKKQTRPISFFQCVYLNGYNGYGFQFPVTPVQQPGENPGKTNSPGQKQQEQ
For B1, the binding entry is on record as “binds”.

(Values after paper PMC9023524.)
